Library screen at single concentrations

The values are deposited in ChEMBL (CHEMBL3988442, “University of Dundee, Small-Polar-MMV Screening Library” (2021)).

Results are given as percent effect. How 0% and 100% were set is not recorded. Most values in the screen are low, and negative values occur. The compounds are a random part of those screened. Two or more numbers in one place are separate tests of the same structure; such repeats can differ widely.

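Phenotypic screen: M. tuberculosis growth, cholesterol and DPPC medium, 4 days; the read-out is not stated. Tested at 50 µM. Direction is inferred from retests: higher values go with more growth inhibition. Of about 69,000 compounds tested this way, about 370 (0.54%) reached 50% or more in at least one test.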

* O=C(NS(=O)(=O)c1ccc2c(c1)CCC2)C1COCCO1 (stereo unspecified) : -29.85%
* CCN(CC)C(=O)Cn1ccc2cc(NC(=O)COC)ccc21 : -2.291%
* Cn1cc(CN2CCC3(CC2)CC(Nc2nccs2)CO3)cn1.O=C(O)C(F)(F)F (stereo unspecified) : -18.86% and -13.86%
* CN(C)C[C@H]1C[C@@H](CO)CN(C(=O)c2cc(=O)[nH]c3cc(F)ccc23)C1 : -5.767%
* CCc1noc(C(C)N2CCN(Cc3noc(C4CC4)n3)CC2)n1 (stereo unspecified) : 3.523%
* O=C(Nc1cccc(C2SCCS2)c1)C1CCCN1c1nccs1 (stereo unspecified) : 15.56%
* [H][C@@]12CS(=O)(=O)C[C@]1([H])N(C(=O)Cc1ccc(F)c(C)c1)CCN2CC(C)C : -25.44%
* Cc1cccc(COc2ccc(C(C)NS(N)(=O)=O)cc2)c1 (stereo unspecified) : 41.76%
* O[C@@H]1C[C@@H](c2nc(-c3ccc(OC(F)(F)F)cc3)no2)N(CC2CC2)C1 : 26.02%
* COCc1ncn2c1CN(C(=O)Nc1ccccc1)CC2 : -14.69%
* Cc1ccc2snc(C(=O)N3CCN(C(=O)NCCC(C)C)CC3)c2c1 : -13.4%
* O=C(CCc1ccc(Cl)s1)N1CCC(N2CCNC2=O)CC1 : 8.784%
* Cc1cc(CC(C)NC2CCN(CC(C)C)CC2)[nH]n1 (stereo unspecified) : 1.596%
* CN(C)CCN(C)C(=O)Cc1ccc2c(c1)OCCO2.O=C(O)CC(O)(CC(=O)O)C(=O)O : -10.83%
* O=C(NC1CCN(C2CC2)CC1)c1[nH]nc(C2CC2)c1Cl : -0.9288%
* CCC1CN(Cc2nnc(C(C)C)o2)CCC(=O)N1Cc1ccccc1 (stereo unspecified) : -25.02%
* Cc1nn(C)cc1CN(C)c1nccc(-c2cn(C)nc2C)n1 : -8.828%
* CN(Cc1nc(N)nc(N(C)C)n1)Cc1cccc2ccccc12 : -10.83%
* CCOC(=O)c1nc(CN2CCN(C(=O)NC3CCCCC3)CC2)cs1 : -5.562%
* CC1(C)CN(C(=O)Nc2ccc(Cn3cccn3)cc2)CCO1 : 3.651%
* CC(C)N(C)Cc1nnc2n1CCN(S(=O)(=O)C1CC1)CC2.O=C(O)C(F)(F)F : -11.93%
* CN1CCN(Cc2cnc3n2CCN(C(=O)c2ccccn2)C3)CC1 : -13.2%
* CCN(CC)Cc1ccccc1NCc1c(C)noc1C : 5.668%
* COCc1nc(C(=O)N2CCCC(n3ccnc3C)C2)cs1 (stereo unspecified) : 2.476%
* O=C(O)c1cn(CC2CCCN(c3nc4ccccc4s3)C2)nn1 (stereo unspecified) : -17.19%
* CCCN1CCC(N(Cc2ncc(C)o2)C(C)=O)C1 (stereo unspecified) : 14.81%
* Cc1cnn(CCNC(C)C(=O)Nc2ccc(Cl)cn2)c1 (stereo unspecified) : 1.986%
* Cc1cc(CN2CCCC(C)(CO)C2)ccc1F (stereo unspecified) : 19.57%
* CC[C@@H]1N(CC2CCC2)CCC[C@]12CCC(=O)N2Cc1ccncc1 : -6.217%

The last 3 entries again:

compound,percent effect
Cc1cnn(CCNC(C)C(=O)Nc2ccc(Cl)cn2)c1 (stereo unspecified),1.986
Cc1cc(CN2CCCC(C)(CO)C2)ccc1F (stereo unspecified),19.57
CC[C@@H]1N(CC2CCC2)CCC[C@]12CCC(=O)N2Cc1ccncc1,-6.217